Source: patent publication US20190177366A1
Results are given in words; binding and its absence hold for the method and conditions named. Binding calls can cover weak binding; strength is not graded here.

Amino acid sequences for entries named in this document (tags omitted). A change or cut given only in a name is not applied to a line headed by its entry.
UniProt Q8NBP7: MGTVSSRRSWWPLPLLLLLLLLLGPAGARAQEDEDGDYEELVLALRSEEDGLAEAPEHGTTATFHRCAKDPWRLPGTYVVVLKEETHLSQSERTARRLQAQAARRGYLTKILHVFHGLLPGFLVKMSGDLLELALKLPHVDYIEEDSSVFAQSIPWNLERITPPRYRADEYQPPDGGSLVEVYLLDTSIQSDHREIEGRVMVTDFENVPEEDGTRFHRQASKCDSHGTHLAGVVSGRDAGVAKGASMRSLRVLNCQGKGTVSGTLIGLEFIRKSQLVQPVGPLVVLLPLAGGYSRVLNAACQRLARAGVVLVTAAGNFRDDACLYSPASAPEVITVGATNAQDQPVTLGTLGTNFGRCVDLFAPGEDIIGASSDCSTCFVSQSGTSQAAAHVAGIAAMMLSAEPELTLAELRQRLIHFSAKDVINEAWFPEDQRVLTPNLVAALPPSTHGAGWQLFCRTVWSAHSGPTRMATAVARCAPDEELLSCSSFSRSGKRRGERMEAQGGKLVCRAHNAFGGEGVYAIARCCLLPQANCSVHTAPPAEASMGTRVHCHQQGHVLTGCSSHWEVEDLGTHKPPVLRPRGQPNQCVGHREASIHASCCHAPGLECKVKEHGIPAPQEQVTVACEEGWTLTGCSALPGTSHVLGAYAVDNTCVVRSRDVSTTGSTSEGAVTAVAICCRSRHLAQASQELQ

What was measured:
[1] = target: PCSK9Δhelix (human) (UniProt Q8NBP7); experiment: phage competition ELISA
[2] = target: PCSK9Δhelix (human) (UniProt Q8NBP7); experiment: SPR
[3] = target: PCSK9Δhelix (human) (UniProt Q8NBP7); experiment: TR-FRET competition, Ab20 as competitor
[4] = target: PCSK9Δhelix (human) (UniProt Q8NBP7); experiment: Ab20 TR-FRET assay and SPR

## SGCRLPWNLQRIGLPC [K9gvpep4]
[1]
  binding: binds

## SGDLMPWNLVRIGLLR [K9gvpep7]
[1]
  binding: binds

## TVFTSWEEYLDWVGSGCRLPWNLQRIGLPC (N-terminal acetyl; C-terminal amide; disulfide-linked extension) [Compound 19]
[2]
  binding: binds
[3]
  binding: binds
[1]
  binding: binds

## TVFTSWEEYLDWVGSGDLMPWNLVRIGLLR (N-terminal acetyl; C-terminal amide) [Compound 20]
[2]
  binding: binds
[3]
  binding: binds
[1]
  binding: binds

## LMPWNLVRIGLLR (N-terminal acetyl; C-terminal amide) [Compound 50]
[4]
  binding: binds

## MPWNLVRIGLLR (N-terminal acetyl; C-terminal amide) [Compound 51]
[4]
  binding: binds

## PWNLVRIGLLR (N-terminal acetyl; C-terminal amide) [Compound 52]
[4]
  binding: binds
